In the supplement of paper PMC10849652:
Some of the results follow.

How the values were obtained:
Assay in all cases: log2 fold change, soluble protein after heating vs DMSO (PISA); higher = thermal stabilisation; K562 cells, 10 uM, 30 min; active = over 0.2 and 3.5 SD of the protein, either way, in both replicates (recomputed)
[1] = compound: CC1=C(C=C(C=C1)NC(=O)C2=CC(=CC=C2)C(C)(C)C#N)NC3=CC4=C(C=C3)N=CN(C4=O)C
In short: (§1)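 Soluble protein was quantified by TMTpro 16plex LC-MS/MS after channel sums were equalised. It was obtained as the supernatant after 21,000xg for 90 min from pooled aliquots of K562 cells (2×10^6 cells/mL, 10 μM compound, 30 min) heated for 3 min across 48°C-58°C and extracted in PBS with 0.5% NP-40 at 4°C. Thermal stability values are relative to control samples and come from duplicates. They are given as log2 fold changes.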

[2] = compound: CC1=CC=C(C=C1)SC2=C3C=C(SC3=CN=C2)C(=O)N
In short: as §1

[3] = compound: CCCS(=O)(=O)Nc1ccc(F)c(C(=O)c2c[nH]c3ncc(Cl)cc23)c1F
In short: as §1

Nexturastat A = compound: CCCCN(Cc1ccc(C(=O)NO)cc1)C(=O)Nc1ccccc1 [Nexturastat A]
In short: as §1

givinostat = compound: CCN(CC)Cc1ccc2cc(COC(=O)Nc3ccc(C(=O)NO)cc3)ccc2c1 [givinostat]
In short: as §1

barasertib = compound: CCN(CCCOc1ccc2c(Nc3cc(CC(=O)Nc4cccc(F)c4)[nH]n3)ncnc2c1)CCOP(=O)(O)O [barasertib]
In short: as §1

[4] = compound: CC1=NC(=CC=C1)C2=C(N=C(N2)C(C)(C)C)C3=CC4=NC=CN=C4C=C3
In short: as §1

vemurafenib = compound: CCCS(=O)(=O)Nc1ccc(F)c(C(=O)c2c[nH]c3ncc(-c4ccc(Cl)cc4)cc23)c1F [vemurafenib]
In short: as §1

[5] = compound: CC1=C(C=C(C=C1)NC(=O)C2=CC(=CC=C2)N(C)C)NC(=O)C3=CC=C(C=C3)O
In short: as §1

[6] = compound: CCCc1cc(C)[nH]c(=O)c1CNC(=O)c1cc(-c2ccnc(N3CCN(C)CC3)c2)cc2c1cnn2C(C)C
In short: as §1

Measured: log2 fold change

PRIMPOL (UniProt Q96LW4)
inactive: [1] 0.007 | [2] 0.115 | [3] 0.043

PRF1 (UniProt P14222)
inactive: [1] 0.07 | [2] 0.051 | Nexturastat A -0.004 | [3] -0.113 | givinostat 0.182 | barasertib 0.215

PPTC7 (UniProt Q8NI37)
inactive: [4] -0.15 | Nexturastat A -0.027 | vemurafenib -0.042

PPP2R5C isoform 2 (UniProt Q13362)
inactive: [5] -0.047 | [4] 0.022 | [6] -0.016 | givinostat 0.048 | barasertib 0.055

PRR12 (UniProt Q9ULL5)
inactive: [1] -0.012 | givinostat 0.213

PRPF39 (UniProt Q86UA1)
inactive: [2] -0.007 | [3] 0.183

PRR14L (UniProt Q5THK1)
active: vemurafenib -0.62
inactive: [2] -0.039 | [3] -0.038

PRKX (UniProt P51817)
inactive: [6] -0.103 | givinostat 0.036 | barasertib 0.126

PPP1R16A (UniProt Q96I34)
inactive: [5] -0.126

Quoted from the results shown (seven entries):
PRF1 (UniProt P14222)
inactive: [1] 0.07 | [2] 0.051 | Nexturastat A -0.004 | [3] -0.113 | givinostat 0.182 | barasertib 0.215

PPTC7 (UniProt Q8NI37)
inactive: [4] -0.15 | Nexturastat A -0.027 | vemurafenib -0.042

PPP2R5C isoform 2 (UniProt Q13362)
inactive: [5] -0.047 | [4] 0.022 | [6] -0.016 | givinostat 0.048 | barasertib 0.055

PRR12 (UniProt Q9ULL5)
inactive: [1] -0.012 | givinostat 0.213

PRPF39 (UniProt Q86UA1)
inactive: [2] -0.007 | [3] 0.183

PRR14L (UniProt Q5THK1)
active: vemurafenib -0.62
inactive: [2] -0.039 | [3] -0.038

PRKX (UniProt P51817)
inactive: [6] -0.103 | givinostat 0.036 | barasertib 0.126

Remaining list, next part.

PPP2R1B (UniProt H0YDG7)
inactive: [1] -0.45 | [6] -0.358 | barasertib 0.076

PPP2R5B (UniProt Q15173)
inactive: [2] -0.131 | vemurafenib -0.104 | [3] 0.104 | [6] -0.013 | givinostat 0.083 | barasertib 0.009

PPP1R12B isoform 6 (UniProt O60237)
inactive: givinostat 0.252 | barasertib 0.108

PRNP (UniProt P04156)
inactive: [1] -0.001 | [6] 0.064 | givinostat -0.028 | barasertib 0.019

PRDM2 (UniProt Q13029)
inactive: [5] 0.002 | [2] 0.139 | [4] -0.111 | Nexturastat A 0.114 | vemurafenib -0.074 | [3] -0.155 | [6] 0.036

PRR16 (UniProt Q569H4)
inactive: givinostat 0.222

PPP1R21 (UniProt Q6ZMI0)
inactive: [1] 0.066 | [2] -0.043 | Nexturastat A -0.091 | vemurafenib 0.041 | [3] -0.011 | givinostat 0.087 | barasertib -0.032

PPP1R3D (UniProt O95685)
inactive: [5] -0.024 | [4] 0.023 | [6] -0.163 | givinostat -0.045 | barasertib 0.078

PPP1R13L (UniProt Q8WUF5)
inactive: [2] -0.091 | Nexturastat A 0.036 | vemurafenib 0.104 | [3] 0.026 | barasertib -0.508

PRKD2 (UniProt M0R346)
inactive: [1] -0.011 | Nexturastat A 0.236 | barasertib -0.337

PROSER3, A0A2R8Y8D9
inactive: [1] -0.116 | Nexturastat A 0.337 | [6] -0.03

PRMT6 (UniProt Q96LA8)
inactive: [5] -0.084 | [2] 0.033 | [4] 0.132 | Nexturastat A -0.048 | vemurafenib 0.057 | [3] 0.01 | [6] 0.042 | givinostat -0.112 | barasertib 0.126

PRADC1 (UniProt Q9BSG0)
inactive: [1] 0.012 | [4] -0.554 | Nexturastat A 0.139 | vemurafenib -0.14 | [6] -0.065

PPP2R3B (UniProt Q9Y5P8)
inactive: Nexturastat A 0.63 | vemurafenib 0.007 | [6] 0.176

PPP1CC (UniProt F8W1A0)
inactive: [6] -0.122 | barasertib -0.096

PROSER3 (UniProt Q2NL68)
inactive: [2] -0.125 | [3] 0.013 | givinostat 0.144 | barasertib 0.229

PPP2CB (UniProt E5RHC1)
inactive: givinostat 0.22
